Results are percentages, as filed.
How 0% and 100% were set is not recorded. Most values in the screen are low, and negative values occur.
The compounds are a random part of those screened.
A dash means the value is not listed here; it may have been measured.

The chains behind the UniProt entries cited, without tags or fusion partners.
UniProt E9BF75, entry or part of it: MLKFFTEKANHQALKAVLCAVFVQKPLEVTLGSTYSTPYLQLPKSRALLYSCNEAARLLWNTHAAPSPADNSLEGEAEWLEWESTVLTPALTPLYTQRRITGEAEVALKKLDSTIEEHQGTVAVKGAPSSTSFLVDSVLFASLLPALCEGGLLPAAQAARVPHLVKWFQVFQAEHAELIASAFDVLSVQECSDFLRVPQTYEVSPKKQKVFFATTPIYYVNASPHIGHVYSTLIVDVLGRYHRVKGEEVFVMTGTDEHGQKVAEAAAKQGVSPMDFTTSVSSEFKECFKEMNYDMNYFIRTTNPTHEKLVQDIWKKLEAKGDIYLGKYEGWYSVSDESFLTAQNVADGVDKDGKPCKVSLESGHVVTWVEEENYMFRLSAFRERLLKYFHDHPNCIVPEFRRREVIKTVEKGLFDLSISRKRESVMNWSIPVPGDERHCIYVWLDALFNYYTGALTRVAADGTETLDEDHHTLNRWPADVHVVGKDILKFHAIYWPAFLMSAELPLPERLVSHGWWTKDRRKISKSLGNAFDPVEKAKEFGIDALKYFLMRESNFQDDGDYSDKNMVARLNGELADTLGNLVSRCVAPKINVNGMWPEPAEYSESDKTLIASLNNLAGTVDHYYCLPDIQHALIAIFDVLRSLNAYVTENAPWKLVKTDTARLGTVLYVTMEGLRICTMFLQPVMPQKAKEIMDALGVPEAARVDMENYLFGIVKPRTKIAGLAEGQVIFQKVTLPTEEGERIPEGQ

A: 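Methionyl-tRNA synthetase (putative), Leishmania donovani (UniProt E9BF75). Primary screen of methionyl-tRNA synthetase; the read-out is not stated. The test concentration is not given. Values are per cent inhibition. Size under these conditions: about 68,000 compounds, about 24 of them at 50% or above in at least one test.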
B: 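Assay on Mycobacterium tuberculosis, filed only as a heat shock assay from Cornell; the read-out is not stated. The concentration is filed as 10 mM, unlikely as a test dose, so the dose is not known. Direction is inferred from retests: higher values go with stronger inhibition. About 69,000 compounds were tested under these conditions; 1.4% (about 930) showed 50% or more at least once.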

structure | A | B
CNC(=O)CCc1cc(C)nc(C2CCN(CC(=O)N(C)C)CC2)c1 | 14.95 | -1.225
CN(C)C(=O)N1CCC2(CC1)CN(CC1CC1)CC21CCNC1=O.O=C(O)C(F)(F)F (centres undefined) | - | 9.981
CCOc1cc(C)nc(N2CCN(C(=O)c3cc[nH]n3)CC2)n1 | 15.64 | -14.76
CCOC(=O)C1CCN(C(=O)c2cc(F)ccc2-n2cnnn2)CC1 | 14.36 | -4.002
CN(C)Cc1nn(C)c2c1CCN(S(=O)(=O)c1cccs1)C2 | 10.78 | -8.817
CCN(CCn1cccn1)Cc1nc(-c2cccc(C)c2)oc1C | 18.35 | 20.24
NC(=O)CN1CCC(c2noc3cc(F)ccc23)CC1 | -1.744 | -31.79
CC(C)N1CCN(c2ccc3ccc(C(=O)NC4CCCC4)cn23)CC1.O=C(O)C(F)(F)F | - | 67.57
Cc1ccc(C2(O)CCN(C(=O)c3cccc(S(C)(=O)=O)c3)CC2)nc1 | 13.7 | 0.3921
CN(Cc1ncc(-c2ccccc2)o1)CC1CCCN1c1cccnn1 (centres undefined) | 15.28 | 0.462
COc1ccc(OC)c(CN(Cc2ccco2)Cc2[nH]cnc2C)c1 | 14.78 | -
CC(C)c1cc(CN2CCNCC2)no1 | 10.54 | 100.9
[H][C@@]12CCCO[C@]1([H])[C@H](Oc1cccnc1)CN2C(=O)c1cscn1 | - | -14.15
CN(C(=O)CSc1ccccn1)C1CCCN(CCc2ccccc2)C1 (centres undefined) | 4.982 | -23.88
COCCNC(=O)Cn1ccc2cccc(OC)c21 | 0.303 | -13.82
c1csc(-c2nc(CN3CCOC(Cn4cncn4)C3)co2)c1 (centres undefined) | 2.614 | 0.555
Cc1nc(CN(C)CC2CCCN(CCc3ccc(Cl)cc3)C2)n(C)n1 (centres undefined) | 3.161 | -4.284
Cn1ccc(C(=O)Nc2nnc(-c3ccccn3)[nH]2)cc1=O | 14.78 | 24.76
CC(C)c1cc(C(=O)N2CCOC3(CCNCC3)C2)no1.O=C(O)C(F)(F)F | - | -6.088
CC(C)COC1CC2(CCN(Cc3nccn3C)CC2)C1.O=C(O)C(F)(F)F | - | -18.52
COc1cccc(CCNC(=O)CN2CCN(C)CC2C)c1 (centres undefined) | 7.937 | -1.028
[H][C@@]12CN(S(=O)(=O)c3ccccc3)C[C@@]1([H])N(CCOC)C(=O)CO2 | - | -5.405
CCc1ccc(C(=O)N2CCCC2c2nnc3n2CCCCC3)o1 (centres undefined) | -3.722 | -3.299
CC(=O)c1cccc(OC(C)C(=O)Nc2cnn(CCN(C)C)c2)c1 (centres undefined) | 7.599 | 5.953
Cn1nnc2c1CCN(CC1CC1)C2COCc1ccccc1.O=C(O)C(F)(F)F (centres undefined) | - | 8.456
Cc1ccc(-n2nnc(CC(=O)N3CCOCC3)c2C)cc1 | 11.02 | 9.931
O=C(NCCCOCC1CCCO1)c1cccnc1N1CCOCC1 (centres undefined) | 1.362 | -25.56
Cc1ccc(NC2(C(=O)NC(C)c3ncn[nH]3)CCCC2)cc1 (centres undefined) | -2.847 | -18.2
N#Cc1ccc(C(=O)NCC2(N3CCOCC3)CCCC2)nc1 | 6.46 | -12.4
O=C(O)C(F)(F)F.[H][C@@]12OCCN(c3ncc(F)cn3)[C@@]1([H])CC[C@H]2OCCN1CCCC1 | - | -1.217
COc1cccc2c1ccn2CCC(=O)Nc1c2c(nn1C)CSC2 | 16.09 | 8.578
COCCNC(=O)N1CCN(C(C)C(=O)NC(C)C)CC1 (centres undefined) | 6.964 | -16.53
O=C(O)C(F)(F)F.O=C(O)C(F)(F)F.[H][C@@]12CCCO[C@]1([H])[C@H](N(C)Cc1cncnc1)CN(Cc1ccco1)C2 | - | -14.42
N#Cc1ccc(N2CCC3(CCC(=O)N3CCN3CCCC3)CC2)nc1.O=C(O)C(F)(F)F.O=C(O)C(F)(F)F | - | 7.576
CN(C)Cc1cn2c(n1)CN(C1CCOC1)CC2 (centres undefined) | 0.5076 | -14.01
Cc1noc([C@H]2C[C@H]3OCC[C@H]3N(S(=O)(=O)C3CC3)C2)n1 | 13.5 | -
CC1(C)CNC(=O)c2nc(CCN3CCCCC3CO)[nH]c2C1 (centres undefined) | 11.24 | 7.693
CC(C)c1nc(CS(=O)(=O)Cc2noc(C3CC3)n2)cs1 | 17.69 | -21.99
Cc1ccc(C)c(-n2cc(CN3CC[C@@H](O)C3)c(-c3ccccc3)n2)c1 | 9.893 | 85.17
Cc1nnc2n1CCN(C(=O)c1cc(Br)c(Cl)[nH]1)C2 | 23.68 | -2.431
Cc1cc(Br)ccc1NCC(=O)Nc1cc(C(C)(C)C)no1 | 6.211 | -7.427
CCOc1ccc(C(F)(F)F)cc1NC(=O)NCc1noc(C)n1 | 15.82 | 8.464
O=C(Nc1ccccc1)C1CN(Cc2ccsc2)CC12CCOCC2.O=C(O)C(F)(F)F (centres undefined) | - | -8.817
Cn1cc(CNCCC(=O)NCc2ccccc2)c(-c2cccnc2)n1 | 5.85 | -18.88
CC(O)CN1CCN(Cc2cccc(C#N)c2)CC1 (centres undefined) | 12.78 | -6.634
CCn1ccnc1CN1CCOC(CNc2cccnn2)C1 (centres undefined) | 10.93 | 15.79
CO[C@@H]1CCN(Cc2ccoc2)C[C@@H]1Cc1ccccc1.O=C(O)C(F)(F)F | - | 28.11
CCS(=O)(=O)c1ccc2c(c1)OCCO2 | 9.946 | 0.09071
CN(C)C(=O)c1cncnc1-c1ccc(CNC(=O)C2CCCO2)cc1 (centres undefined) | 0.5814 | -17.85
CS(=O)(=O)N1CCC2(CC1)COC(COc1cccnc1)C2 (centres undefined) | 8.759 | -
CN(C)CC(=O)N1CCN(C(=O)c2cccc3[nH]ncc23)CC1 | 12.89 | -6.819
CCC1(C(=O)O)CCCN(C(=O)c2ccc(O)c(Cl)c2)C1 (centres undefined) | 19.51 | 11.01
[H][C@]12CC[C@]([H])(CN(Cc3[nH]cnc3C)C1)N(C(=O)CCn1cncn1)C2 | - | 2.899
c1cnc(N2CCO[C@H]3[C@H](OCc4cccnc4)CC[C@@H]32)nc1 | -2.5 | -
CCNS(=O)(=O)C1CCN(C(=O)c2c(F)cc(F)cc2F)C1 (centres undefined) | -1.928 | 10.37
CC(C)CC(=O)N1CC(=O)c2sc(NC3CCCCC3)nc2C1 | 7.039 | -14.87
CCN1CCCC1(C)c1nc(C)cc(N)n1 (centres undefined) | 9.974 | 7.168
O=C1N(Cc2cccnc2)CCC12CCCN(c1ncccn1)C2 (centres undefined) | -1.639 | -
c1cnn(CC2CN(Cc3nc(-c4ccoc4)no3)CCO2)c1 (centres undefined) | 13.19 | -9.244
COc1cccc(CN(C)Cc2[nH]c3ccccc3c2C)c1O | 11.15 | 10.65
CC(=O)N1CCc2ccc(S(=O)(=O)N3CCCCC3C)cc21 (centres undefined) | 15.27 | -13.18
CC(C)Cc1cc(C(=O)NCCN2CCCS2(=O)=O)[nH]n1 | 16.84 | 12.07

6 of the entries, repeated:

- Cc1nc(CN(C)CC2CCCN(CCc3ccc(Cl)cc3)C2)n(C)n1 (centres undefined) : A: 3.161%; B: -4.284%
- COc1cccc2c1ccn2CCC(=O)Nc1c2c(nn1C)CSC2 : A: 16.09%; B: 8.578%
- CC1(C)CNC(=O)c2nc(CCN3CCCCC3CO)[nH]c2C1 (centres undefined) : A: 11.24%; B: 7.693%
- CC(=O)c1cccc(OC(C)C(=O)Nc2cnn(CCN(C)C)c2)c1 (centres undefined) : A: 7.599%; B: 5.953%
- O=C(O)C(F)(F)F.O=C(O)C(F)(F)F.[H][C@@]12CCCO[C@]1([H])[C@H](N(C)Cc1cncnc1)CN(Cc1ccco1)C2 : B: -14.42%
- CC(C)COC1CC2(CCN(Cc3nccn3C)CC2)C1.O=C(O)C(F)(F)F : B: -18.52%

Measurements from “University of Dundee, Small-Polar-MMV Screening Library” (2021), ChEMBL document CHEMBL3988442.